Here are results for one substance from US20230390324A1, “TREATMENT OF FATTY LIVER DISEASES” (TX MEDIC AB, priority 2020, published 2023).

This data set deals with 12 BioMAP® Diversity Plus human cell systems. The data set is described as follows: BioMAP Diversity PLUS phenotypic profiling in 12 primary human cell and co-culture systems. Particulars: benchmarked against Pirfenidone; FIG. 4. Format: cell-based. As for the experimental part: Twelve primary human cell and co-cultures assays were used to assess the effects of dextran sulfate on clinically-relevant protein biomarkers of inflammation, cell growth and fibrosis as part of the quality controlled BioMAP® Diversity PLUS, commercially available service (Eurofins DiscoverX Corporation, Freemont, CA, USA; for full details https://www.discoverx.com). Dextran sulfate was tested in these assays at four concentrations: 4000 nMw 1300 nMw 400 nM and 150 nM. Human primary cells employed in the BioMAP® systems were used at passage 4 or earlier, derived from multiple donors (n=2 to 6), commercially purchased and handled according to the recommendations of the manufacturers. Human blood derived CD14+ monocytes were differentiated into macrophages in vitro before being added to the IMphg system (Eurofins DiscoverX Corporation). […]
Assays were derived from either single cell types or co-culture systems. […] Test agents prepared in either DMSO (small molecules; final concentration 0.1%) or PBS (biologics) were added at the indicated concentrations 1 h before stimulation, and cells remained in culture for 24 h or as otherwise indicated (48 h, MyoF system; 72 h, BT system (soluble readouts); 168 h, BT system (secreted IgG)). […] Soluble factors from supernatants were quantified using either HTRF® detection, bead-based multiplex immunoassay or capture ELISA. […]

On to Dextran sulfate, for which the “common activities with Pirfenidone (number)” value is 5 and the “differential activities versus Pirfenidone outside the normal range (number)” value is 34.
